Among the data in paper PMC11887803 are binding values, retold here.

Chains of the proteins cited; added tags and fusions are not shown. Lines headed by an entry give the natural chain unless they say otherwise; changes in a name come on top. Residues count along the entry.
UniProt Q62261: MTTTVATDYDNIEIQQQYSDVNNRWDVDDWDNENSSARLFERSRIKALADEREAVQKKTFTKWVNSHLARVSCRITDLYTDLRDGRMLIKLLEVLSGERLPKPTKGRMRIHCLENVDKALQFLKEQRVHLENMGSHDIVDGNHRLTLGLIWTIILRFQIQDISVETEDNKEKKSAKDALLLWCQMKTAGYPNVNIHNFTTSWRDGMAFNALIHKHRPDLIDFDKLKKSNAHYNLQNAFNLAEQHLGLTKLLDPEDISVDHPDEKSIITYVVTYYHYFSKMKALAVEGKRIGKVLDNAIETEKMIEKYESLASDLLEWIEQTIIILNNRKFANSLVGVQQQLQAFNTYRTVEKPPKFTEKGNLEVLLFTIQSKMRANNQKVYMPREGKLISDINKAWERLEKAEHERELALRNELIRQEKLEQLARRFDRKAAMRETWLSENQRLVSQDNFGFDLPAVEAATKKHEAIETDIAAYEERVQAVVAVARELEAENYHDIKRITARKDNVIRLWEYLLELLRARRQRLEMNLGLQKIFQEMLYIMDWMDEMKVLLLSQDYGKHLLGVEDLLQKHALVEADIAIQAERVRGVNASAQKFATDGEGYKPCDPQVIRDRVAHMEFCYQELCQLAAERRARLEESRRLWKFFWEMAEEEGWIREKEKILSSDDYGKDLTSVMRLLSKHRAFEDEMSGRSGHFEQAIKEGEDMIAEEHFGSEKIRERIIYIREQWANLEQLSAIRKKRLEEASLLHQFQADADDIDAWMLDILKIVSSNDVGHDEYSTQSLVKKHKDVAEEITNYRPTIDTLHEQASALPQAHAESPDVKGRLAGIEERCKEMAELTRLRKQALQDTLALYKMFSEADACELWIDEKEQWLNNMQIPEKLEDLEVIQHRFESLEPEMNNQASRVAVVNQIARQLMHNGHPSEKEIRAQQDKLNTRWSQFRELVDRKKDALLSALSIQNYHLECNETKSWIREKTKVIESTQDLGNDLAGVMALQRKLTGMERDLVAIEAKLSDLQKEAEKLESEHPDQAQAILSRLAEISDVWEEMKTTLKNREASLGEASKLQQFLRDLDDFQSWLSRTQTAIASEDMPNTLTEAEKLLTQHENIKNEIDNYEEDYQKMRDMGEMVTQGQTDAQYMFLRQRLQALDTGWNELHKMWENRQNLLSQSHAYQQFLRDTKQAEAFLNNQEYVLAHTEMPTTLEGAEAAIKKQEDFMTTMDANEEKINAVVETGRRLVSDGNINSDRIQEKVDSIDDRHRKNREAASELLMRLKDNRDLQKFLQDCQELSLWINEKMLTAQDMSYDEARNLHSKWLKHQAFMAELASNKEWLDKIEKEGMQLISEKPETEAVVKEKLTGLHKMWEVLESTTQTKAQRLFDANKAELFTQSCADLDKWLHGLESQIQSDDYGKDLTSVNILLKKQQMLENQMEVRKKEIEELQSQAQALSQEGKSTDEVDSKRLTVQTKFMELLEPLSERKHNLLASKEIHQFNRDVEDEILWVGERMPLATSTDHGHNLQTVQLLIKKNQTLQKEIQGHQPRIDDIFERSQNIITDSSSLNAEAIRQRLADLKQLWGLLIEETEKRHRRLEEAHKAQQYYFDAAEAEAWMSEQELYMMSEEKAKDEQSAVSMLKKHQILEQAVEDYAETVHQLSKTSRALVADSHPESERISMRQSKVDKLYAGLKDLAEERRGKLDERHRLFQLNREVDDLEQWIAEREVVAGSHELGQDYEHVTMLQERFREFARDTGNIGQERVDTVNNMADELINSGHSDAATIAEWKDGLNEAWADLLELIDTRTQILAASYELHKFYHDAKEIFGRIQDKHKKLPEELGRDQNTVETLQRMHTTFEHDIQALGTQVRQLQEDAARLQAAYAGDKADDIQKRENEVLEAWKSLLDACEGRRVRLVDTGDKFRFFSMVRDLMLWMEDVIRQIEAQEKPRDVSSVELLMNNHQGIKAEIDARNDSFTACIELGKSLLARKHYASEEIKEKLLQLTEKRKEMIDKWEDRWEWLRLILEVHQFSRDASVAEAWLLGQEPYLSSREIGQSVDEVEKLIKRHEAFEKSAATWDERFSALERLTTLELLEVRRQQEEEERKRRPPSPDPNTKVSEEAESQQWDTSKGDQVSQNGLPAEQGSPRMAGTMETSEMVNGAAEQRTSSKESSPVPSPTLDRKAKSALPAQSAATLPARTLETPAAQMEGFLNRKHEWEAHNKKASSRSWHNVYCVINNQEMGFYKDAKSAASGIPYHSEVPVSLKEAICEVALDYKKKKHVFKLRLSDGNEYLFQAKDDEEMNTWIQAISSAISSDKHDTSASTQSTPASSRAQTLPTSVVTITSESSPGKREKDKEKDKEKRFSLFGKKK
βII-spectrin prey construct G (amino acids 185 to 411): residues 185-411 of Q62261

These are yes or no findings as the source states them, for the method shown. For some of these results: In cells and extracts the contact can be indirect.

In assay [1] the target is T1, Palm1(1-263) ΔEx8 splice variant bait (mouse) (UniProt Q9Z0P4).
T1 sequence: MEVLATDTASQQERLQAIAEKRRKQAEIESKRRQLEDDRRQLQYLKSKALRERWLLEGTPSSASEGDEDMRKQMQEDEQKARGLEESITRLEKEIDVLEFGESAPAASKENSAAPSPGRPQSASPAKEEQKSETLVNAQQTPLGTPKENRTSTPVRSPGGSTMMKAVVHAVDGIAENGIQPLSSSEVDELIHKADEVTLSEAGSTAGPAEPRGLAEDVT
Put plainly: two-hybrid; 1-by-1 test: LexA-DBD baits (pFBL23) and Gal4-AD preys (pP7) in mated diploid yeast (L40ΔGal4 x YHGX13); HIS3 reporter, spots on DO-3 medium with a 3AT series of 0, 1, 2, 5, 10, 20, 50, 100 and 200 mM.

Assay [2] has as its target T2, Palm1ΔEx8 bait (Palm1 without exon 8, without the last 13 codons), N-Palm1-LexA-C (mouse) (UniProt Q9Z0P4).
T2 sequence: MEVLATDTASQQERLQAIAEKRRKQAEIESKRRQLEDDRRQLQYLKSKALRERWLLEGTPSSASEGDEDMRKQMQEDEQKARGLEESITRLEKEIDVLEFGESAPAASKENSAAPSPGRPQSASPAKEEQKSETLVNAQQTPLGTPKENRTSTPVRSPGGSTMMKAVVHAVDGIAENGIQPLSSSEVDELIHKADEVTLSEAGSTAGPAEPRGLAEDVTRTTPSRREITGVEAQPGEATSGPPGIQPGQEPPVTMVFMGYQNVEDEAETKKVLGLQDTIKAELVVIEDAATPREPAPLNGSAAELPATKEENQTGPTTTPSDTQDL
The assay is described as above.

Assay [3] has as its target T3, native Palm1 from brain lysate (UniProt Q9Z0P4).
T3 sequence: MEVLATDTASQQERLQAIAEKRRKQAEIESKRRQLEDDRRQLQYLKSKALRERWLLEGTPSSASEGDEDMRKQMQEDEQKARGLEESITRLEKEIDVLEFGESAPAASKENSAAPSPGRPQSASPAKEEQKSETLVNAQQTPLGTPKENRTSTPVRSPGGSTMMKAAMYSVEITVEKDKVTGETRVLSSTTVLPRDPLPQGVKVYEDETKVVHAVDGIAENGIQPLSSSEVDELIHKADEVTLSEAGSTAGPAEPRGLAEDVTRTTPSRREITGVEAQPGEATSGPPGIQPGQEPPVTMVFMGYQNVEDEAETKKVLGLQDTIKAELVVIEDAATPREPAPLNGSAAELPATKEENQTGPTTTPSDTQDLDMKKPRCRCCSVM
As to the kind of experiment: co-IP; from brain lysate with antibodies against the respective other protein; conditions not given.

Assay [4] deals with native βII-spectrin from brain lysate (UniProt Q62261). The assay is described as above.

With “βII-spectrin prey construct G (amino acids 185 to 411) (from UniProt Q62261-1 185-411) (domain or fragment)”, the binding entry in assay [1] and in assay [2] was “no binding” throughout. As for “native βII-spectrin from brain lysate (from UniProt Q62261 1-2363)”, the binding entry in assay [3] is reported as “no binding”.

B1: native Palm1 from brain lysate (protein, UniProt Q9Z0P4 1-383)
chain: T3 sequence
B1: the binding result in assay [4] is “no binding”.
